These are yes or no findings as the source states them, for the method shown. For some of these results: In cells and extracts the contact can be indirect. Some binding calls cover weakened binding; strength is not graded here. For some of these results: Tags and fused reporters may be left off the sequences shown.
Tests used:
[1] = biological target: T1, full-length Engrailed protein fused to the Gal4 DNA binding domain (pGBT9-EN) (Drosophila) (UniProt P02836); assay: two-hybrid; beta-galactosidase staining after mating of the EN-FL (pGBT9) strain with strains holding GsbN-FL or GsbN-Cter (pGAD)
T1 sequence: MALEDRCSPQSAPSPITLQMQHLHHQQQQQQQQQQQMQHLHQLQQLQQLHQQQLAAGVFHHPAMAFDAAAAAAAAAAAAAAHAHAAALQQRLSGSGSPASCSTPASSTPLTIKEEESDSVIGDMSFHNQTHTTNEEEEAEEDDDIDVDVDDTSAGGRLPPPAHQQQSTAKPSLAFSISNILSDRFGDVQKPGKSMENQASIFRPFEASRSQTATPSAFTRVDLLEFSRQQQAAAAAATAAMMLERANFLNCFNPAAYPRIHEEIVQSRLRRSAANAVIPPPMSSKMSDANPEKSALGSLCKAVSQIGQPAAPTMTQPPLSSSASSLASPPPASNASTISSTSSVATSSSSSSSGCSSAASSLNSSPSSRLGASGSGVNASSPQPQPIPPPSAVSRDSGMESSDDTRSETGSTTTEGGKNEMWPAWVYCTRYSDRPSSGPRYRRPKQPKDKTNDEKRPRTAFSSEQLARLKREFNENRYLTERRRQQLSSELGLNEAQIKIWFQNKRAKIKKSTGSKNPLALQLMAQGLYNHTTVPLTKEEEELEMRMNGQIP

Protein sequences, listed by entry. Tags and fused reporters are not part of them. Lines headed by an entry give the natural chain unless they say otherwise; changes in a name come on top.
UniProt P09083: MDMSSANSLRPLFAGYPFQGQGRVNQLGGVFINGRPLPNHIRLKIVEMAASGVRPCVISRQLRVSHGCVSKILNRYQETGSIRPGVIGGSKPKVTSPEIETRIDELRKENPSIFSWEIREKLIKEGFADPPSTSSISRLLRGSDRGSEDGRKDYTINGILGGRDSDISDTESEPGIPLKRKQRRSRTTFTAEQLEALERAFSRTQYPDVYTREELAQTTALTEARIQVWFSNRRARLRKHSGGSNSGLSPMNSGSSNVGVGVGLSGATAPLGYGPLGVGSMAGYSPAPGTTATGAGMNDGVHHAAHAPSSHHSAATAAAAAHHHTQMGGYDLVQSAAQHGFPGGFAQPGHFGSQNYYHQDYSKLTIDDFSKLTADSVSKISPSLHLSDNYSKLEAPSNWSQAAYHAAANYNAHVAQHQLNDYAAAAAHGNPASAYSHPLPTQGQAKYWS

[2] = biological target: T1, full-length Engrailed protein fused to the Gal4 DNA binding domain (pGBT9-EN) (Drosophila); assay: two-hybrid; histidine selection on -W-L-H medium with increasing amounts of 3AT; empty pGBT9 and pGAD as negative controls
[3] = biological target: T2, EN protein in extracts of HS-EN embryos (Drosophila) (UniProt P02836); assay: co-IP; 35S-labelled in vitro translated protein with protein extracts from HS-GsbN or HS-EN embryos; precipitated with anti-GsbN or anti-EN (4F11) antibody
T2 sequence: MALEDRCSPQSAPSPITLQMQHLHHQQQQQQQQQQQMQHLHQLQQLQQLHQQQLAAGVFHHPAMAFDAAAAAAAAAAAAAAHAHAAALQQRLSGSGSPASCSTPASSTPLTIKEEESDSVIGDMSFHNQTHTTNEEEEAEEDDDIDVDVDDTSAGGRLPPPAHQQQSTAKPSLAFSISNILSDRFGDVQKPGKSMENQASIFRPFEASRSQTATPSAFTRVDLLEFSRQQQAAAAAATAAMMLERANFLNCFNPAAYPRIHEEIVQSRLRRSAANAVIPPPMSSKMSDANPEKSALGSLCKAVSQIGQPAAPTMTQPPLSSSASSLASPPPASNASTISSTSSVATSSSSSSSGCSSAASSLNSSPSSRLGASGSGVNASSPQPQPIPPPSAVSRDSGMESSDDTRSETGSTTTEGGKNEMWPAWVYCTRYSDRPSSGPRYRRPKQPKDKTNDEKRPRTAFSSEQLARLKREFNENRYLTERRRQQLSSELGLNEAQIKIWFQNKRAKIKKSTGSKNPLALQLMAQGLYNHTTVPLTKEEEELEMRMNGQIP

[4] = biological target: T3, GST-EN fusion protein (Drosophila) (UniProt P02836); assay: pull-down; GST or GST fusion on glutathione agarose beads; 35S-labelled in vitro translated protein, 1 hr at room temperature in TBST with 0.5% Triton X-100 and 0.2% BSA; washes with 1% Triton X-100 and 250, 500, 750 mM and 1 M NaCl; autoradiography; only the target purified
T3 sequence: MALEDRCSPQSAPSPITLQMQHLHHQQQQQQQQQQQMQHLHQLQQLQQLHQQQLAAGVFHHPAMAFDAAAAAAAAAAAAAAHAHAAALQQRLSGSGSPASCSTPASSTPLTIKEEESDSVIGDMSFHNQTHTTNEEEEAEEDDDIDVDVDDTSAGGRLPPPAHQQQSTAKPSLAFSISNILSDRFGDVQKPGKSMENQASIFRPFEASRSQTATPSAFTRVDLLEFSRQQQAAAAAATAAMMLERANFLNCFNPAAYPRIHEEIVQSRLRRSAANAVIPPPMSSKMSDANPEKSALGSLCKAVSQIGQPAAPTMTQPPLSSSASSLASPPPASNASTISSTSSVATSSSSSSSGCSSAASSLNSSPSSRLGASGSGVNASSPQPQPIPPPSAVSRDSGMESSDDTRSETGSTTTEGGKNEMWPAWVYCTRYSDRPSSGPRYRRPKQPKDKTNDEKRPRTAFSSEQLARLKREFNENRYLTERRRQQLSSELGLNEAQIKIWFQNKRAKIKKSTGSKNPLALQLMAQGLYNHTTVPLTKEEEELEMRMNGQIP

[5] = biological target: GsbN protein in extracts of HS-GsbN embryos (Drosophila) (UniProt P09083); assay: co-IP; 35S-labelled in vitro translated protein with protein extracts from HS-GsbN or HS-EN embryos; precipitated with anti-GsbN or anti-EN (4F11) antibody
[6] = biological target: GST-GsbN fusion protein (Drosophila) (UniProt P09083); assay: pull-down; GST or GST fusion on glutathione agarose beads; 35S-labelled in vitro translated protein, 1 hr at room temperature in TBST with 0.5% Triton X-100 and 0.2% BSA; washes with 1% Triton X-100 and 250, 500, 750 mM and 1 M NaCl; autoradiography; only the target purified

Q: “full-length GsbN fused to the Gal4 activation domain (pGAD) (from UniProt P09083 1-449)” was tested. Which binding [1] did it give?
A: binds

Q: What does the source list for “C-terminal region of GsbN (aa 173 to aa 449) fused to the Gal4 activation domain (pGAD) (from UniProt P09083 173-449) (domain or fragment)”?
A: binding [2]: binds; binding [1]: binds

Q: Which binding [3] does the source give for “35S-labelled in vitro translated full-length GsbN protein (from UniProt P09083 1-449)” here?
A: binds

Q: And the binding [4]?
A: binds

B1: 35S-labelled in vitro translated full-length EN protein (protein, UniProt P02836 1-552)
chain: MALEDRCSPQSAPSPITLQMQHLHHQQQQQQQQQQQMQHLHQLQQLQQLHQQQLAAGVFHHPAMAFDAAAAAAAAAAAAAAHAHAAALQQRLSGSGSPASCSTPASSTPLTIKEEESDSVIGDMSFHNQTHTTNEEEEAEEDDDIDVDVDDTSAGGRLPPPAHQQQSTAKPSLAFSISNILSDRFGDVQKPGKSMENQASIFRPFEASRSQTATPSAFTRVDLLEFSRQQQAAAAAATAAMMLERANFLNCFNPAAYPRIHEEIVQSRLRRSAANAVIPPPMSSKMSDANPEKSALGSLCKAVSQIGQPAAPTMTQPPLSSSASSLASPPPASNASTISSTSSVATSSSSSSSGCSSAASSLNSSPSSRLGASGSGVNASSPQPQPIPPPSAVSRDSGMESSDDTRSETGSTTTEGGKNEMWPAWVYCTRYSDRPSSGPRYRRPKQPKDKTNDEKRPRTAFSSEQLARLKREFNENRYLTERRRQQLSSELGLNEAQIKIWFQNKRAKIKKSTGSKNPLALQLMAQGLYNHTTVPLTKEEEELEMRMNGQIP
modifications: 35S-labelled
Q: For B1, which binding [5] is on record?
A: binds

Q: What about the binding [6] of the same molecule?
A: binds
